In this assay the target is Recombinant Human TNF-α/TNFSF1A (human). Nature of the assay: SPR (BIACORE). (In general: Surface plasmon resonance follows binding to a sensor surface in real time, without labels.)

Residue numbers refer to the chain shown, from its start. No constants are given. Whether binding was seen depends on the method and setting. A result given as binding can be weak or reduced; the word gives no strength.

B1: AB353 (antibody, V domains shown)
VH: EVQLVQSGSELKKPGASVKVSCKASGYTFTNYGMNWVRQAPGQGLEWMGWINTYTGEPTYADDFKGRFVFSLDTSVSTAYLQISSLKAEDTAVYYCARKFLTTVVVTDYAMDYWGQGTTVTVSS
VL: DIQMTQSPSSLSASVGDRVTITCRASQDISNYLNWYQQKPGKAPKLLIYYTSRLQSGVPSRFSGSGSGTDYTLTISSLQPEDFATYYCQQGNTLPPTFGQGTKLEIK
notes: Full-length humanized antibody made in HEK 293-6E; also called hMAK199VH.1/hMAK199VL.1b
In the case of B1, the binding entry is “binds”.

B2: AB381 (antibody, V domains shown)
VH: EIQLVQSGAEVKKPGASVKVSCKASGYTFTNYGMNWVRQAPGQGLEWMGWINTYTGEPTYADDFKGRVTFTTDTSTSTAYMELSSLRSEDTAVYYCARKFLTTVVVTDYAMDYWGQGTTVTVSS
VL: B1 VL with Y71F
notes: Full-length humanized antibody made in HEK 293-6E; also called hMAK199VH.2b/hMAK199VL.1
On to B2, for which the binding result is on record as “binds”.

B3: AB356 (antibody, V domains shown)
VH: B1 VH
VL: DIVMTQSPAFLSVTPGEKVTITCRASQDISNYLNWYQQKPDQAPKLLIYYTSRLQSGVPSRFSGSGSGTDYTFTISSLEAEDAATYYCQQGNTLPPTFGQGTKLEIK
notes: Full-length humanized antibody made in HEK 293-6E; also called hMAK199VH.1/hMAK199VL.2b
For the molecule B3, the binding entry is on record as “binds”.

B4: AB371 (antibody, V domains shown)
VH: B2 VH with I2V, F70M
VL: B1 VL
notes: Full-length humanized antibody made in HEK 293-6E; also called hMAK199VH.2/hMAK199VL.1b
B4: the binding result is on record as “binds”.

B5: AB375 (antibody, V domains shown)
VH: B2 VH with V68F, T72L, Y95F
VL: B1 VL with Y71F
notes: Full-length humanized antibody made in HEK 293-6E; also called hMAK199VH.2a/hMAK199VL.1
For the molecule B5, the binding result is “binds”.

B6: AB383 (antibody, V domains shown)
VH: B2 VH
VL: B1 VL
notes: Full-length humanized antibody made in HEK 293-6E; also called hMAK199VH.2b/hMAK199VL.1b
As for B6, the binding entry is “binds”.

B7: AB370 (antibody, V domains shown)
VH: B2 VH with I2V, F70M
VL: B1 VL with A43T, P44V, Y87F
notes: Full-length humanized antibody made in HEK 293-6E; also called hMAK199VH.2/hMAK199VL.1a
With B7, the binding result is on record as “binds”.

B8: AB376 (antibody, V domains shown)
VH: B2 VH with V68F, T72L, Y95F
VL: B1 VL with A43T, P44V, Y87F
notes: Full-length humanized antibody made in HEK 293-6E; also called hMAK199VH.2a/hMAK199VL.1a
With B8, the binding entry is “binds”.

B9: AB382 (antibody, V domains shown)
VH: B2 VH
VL: B1 VL with A43T, P44V, Y87F
notes: Full-length humanized antibody made in HEK 293-6E; also called hMAK199VH.2b/hMAK199VL.1a
For the molecule B9, the binding entry is on record as “binds”.

B10: AB369 (antibody, V domains shown)
VH: B2 VH with I2V, F70M
VL: B1 VL with Y71F
notes: Full-length humanized antibody made in HEK 293-6E; also called hMAK199VH.2/hMAK199VL.1
Turning to B10, the binding entry is “binds”.

B11: AB380 (antibody, V domains shown)
VH: B2 VH with V68F, T72L, Y95F
VL: B3 VL
notes: Full-length humanized antibody made in HEK 293-6E; also called hMAK199VH.2a/hMAK199VL.2b
Take B11: the binding entry is “binds”.

B12: AB352 (antibody, V domains shown)
VH: B1 VH
VL: B1 VL with A43T, P44V, Y87F
notes: Full-length humanized antibody made in HEK 293-6E; also called hMAK199VH.1/hMAK199VL.1a
For B12, the binding result is “binds”.

B13: AB355 (antibody, V domains shown)
VH: B1 VH
VL: B3 VL with A43T, P44V, Y87F
notes: Full-length humanized antibody made in HEK 293-6E; also called hMAK199VH.1/hMAK199VL.2a
Turning to B13, the binding entry is “binds”.

B14: AB364 (antibody, V domains shown)
VH: B1 VH with Y95F
VL: B1 VL with A43T, P44V, Y87F
notes: Full-length humanized antibody made in HEK 293-6E; also called hMAK199VH.1b/hMAK199VL.1a
For the molecule B14, the binding result is given as “binds”.

B15: AB360 (antibody, V domains shown)
VH: B1 VH with V2I, Y95F
VL: B3 VL with I2V, Y49K, Y71F
notes: Full-length humanized antibody made in HEK 293-6E; also called hMAK199VH.1a/hMAK199VL.2
B15: the binding entry is “binds”.

B16: AB351 (antibody, V domains shown)
VH: B1 VH
VL: B1 VL with Y71F
notes: Full-length humanized antibody made in HEK 293-6E; also called hMAK199VH.1/hMAK199VL.1
In the case of B16, the binding result was “binds”.

B17: AB359 (antibody, V domains shown)
VH: B1 VH with V2I, Y95F
VL: B1 VL
notes: Full-length humanized antibody made in HEK 293-6E; also called hMAK199VH.1a/hMAK199VL.1b
In the case of B17, the binding result is reported as “binds”.

B18: AB377 (antibody, V domains shown)
VH: B2 VH with V68F, T72L, Y95F
VL: B1 VL
notes: Full-length humanized antibody made in HEK 293-6E; also called hMAK199VH.2a/hMAK199VL.1b
For B18, the binding entry is “binds”.

B19: AB367 (antibody, V domains shown)
VH: B1 VH with Y95F
VL: B3 VL with A43T, P44V, Y87F
notes: Full-length humanized antibody made in HEK 293-6E; also called hMAK199VH.1b/hMAK199VL.2a
B19: the binding entry is listed as “binds”.

B20: AB358 (antibody, V domains shown)
VH: B1 VH with V2I, Y95F
VL: B1 VL with A43T, P44V, Y87F
notes: Full-length humanized antibody made in HEK 293-6E; also called hMAK199VH.1a/hMAK199VL.1a
For B20, the binding entry was “binds”.

B21: AB361 (antibody, V domains shown)
VH: B1 VH with V2I, Y95F
VL: B3 VL with A43T, P44V, Y87F
notes: Full-length humanized antibody made in HEK 293-6E; also called hMAK199VH.1a/hMAK199VL.2a
As to B21, the binding entry was “binds”.

B22: AB366 (antibody, V domains shown)
VH: B1 VH with Y95F
VL: B3 VL with I2V, Y49K, Y71F
notes: Full-length humanized antibody made in HEK 293-6E; also called hMAK199VH.1b/hMAK199VL.2
For the molecule B22, the binding result is “binds”.

B23: AB368 (antibody, V domains shown)
VH: B1 VH with Y95F
VL: B3 VL
notes: Full-length humanized antibody made in HEK 293-6E; also called hMAK199VH.1b/hMAK199VL.2b
B23: the binding result was “binds”.

B24: AB365 (antibody, V domains shown)
VH: B1 VH with Y95F
VL: B1 VL
notes: Full-length humanized antibody made in HEK 293-6E; also called hMAK199VH.1b/hMAK199VL.1b
As to B24, the binding result is recorded as “binds”.

B25: AB362 (antibody, V domains shown)
VH: B1 VH with V2I, Y95F
VL: B3 VL
notes: Full-length humanized antibody made in HEK 293-6E; also called hMAK199VH.1a/hMAK199VL.2b
As for B25, the binding entry is listed as “binds”.

B26: AB354 (antibody, V domains shown)
VH: B1 VH
VL: B3 VL with I2V, Y49K, Y71F
notes: Full-length humanized antibody made in HEK 293-6E; also called hMAK199VH.1/hMAK199VL.2
For B26, the binding result is reported as “binds”.

B27: AB363 (antibody, V domains shown)
VH: B1 VH with Y95F
VL: B1 VL with Y71F
notes: Full-length humanized antibody made in HEK 293-6E; also called hMAK199VH.1b/hMAK199VL.1
B27: the binding result was “binds”.

B28: AB357 (antibody, V domains shown)
VH: B1 VH with V2I, Y95F
VL: B1 VL with Y71F
notes: Full-length humanized antibody made in HEK 293-6E; also called hMAK199VH.1a/hMAK199VL.1
Regarding B28, the binding entry was “binds”.

B29: AB372 (antibody, V domains shown)
VH: B2 VH with I2V, F70M
VL: B3 VL with I2V, Y49K, Y71F
notes: Full-length humanized antibody made in HEK 293-6E; also called hMAK199VH.2/hMAK199VL.2
Turning to B29, the binding entry is listed as “binds”.

B30: AB378 (antibody, V domains shown)
VH: B2 VH with V68F, T72L, Y95F
VL: B3 VL with I2V, Y49K, Y71F
notes: Full-length humanized antibody made in HEK 293-6E; also called hMAK199VH.2a/hMAK199VL.2
B30: the binding result is listed as “binds”.

B31: AB373 (antibody, V domains shown)
VH: B2 VH with I2V, F70M
VL: B3 VL with A43T, P44V, Y87F
notes: Full-length humanized antibody made in HEK 293-6E; also called hMAK199VH.2/hMAK199VL.2a
In the case of B31, the binding result was “binds”.

B32: AB386 (antibody, V domains shown)
VH: B2 VH
VL: B3 VL
notes: Full-length humanized antibody made in HEK 293-6E; also called hMAK199VH.2b/hMAK199VL.2b
Regarding B32, the binding entry is recorded as “binds”.

B33: AB385 (antibody, V domains shown)
VH: B2 VH
VL: B3 VL with A43T, P44V, Y87F
notes: Full-length humanized antibody made in HEK 293-6E; also called hMAK199VH.2b/hMAK199VL.2a
With B33, the binding result is “binds”.

B34: AB384 (antibody, V domains shown)
VH: B2 VH
VL: B3 VL with I2V, Y49K, Y71F
notes: Full-length humanized antibody made in HEK 293-6E; also called hMAK199VH.2b/hMAK199VL.2
B34: the binding result was “binds”.

B35: AB374 (antibody, V domains shown)
VH: B2 VH with I2V, F70M
VL: B3 VL
notes: Full-length humanized antibody made in HEK 293-6E; also called hMAK199VH.2/hMAK199VL.2b
For the molecule B35, the binding entry is reported as “binds”.

B36: AB379 (antibody, V domains shown)
VH: B2 VH with V68F, T72L, Y95F
VL: B3 VL with A43T, P44V, Y87F
notes: Full-length humanized antibody made in HEK 293-6E; also called hMAK199VH.2a/hMAK199VL.2a
Consider B36, for which the binding entry is “binds”.

B37: murine anti-human TNF-α monoclonal antibody MAK199 (antibody, V domains shown)
VH: QIQLVQSGPELKKPGETVMISCKASGYTFTNYGMNWVKQAPGKGLKWMGWINTYTGEPTYADDFKGRFAFSLETSASTAYLQINNLKNEDTATYFCARKFLTTVVVTDYAMDYWGQGTSVTVSS
VL: DIQMTQTTSSLSASLGDRVTISCRASQDISNYLNWYQQKPDGTVKLLIYYTSRLQSGVPSRFSGSGSGTDYSLTISNLEQEDIATYFCQQGNTLPPTFGVGTKLELK
Take B37: the binding result is reported as “binds”.

Values taken from patent US20150111251A1 (AbbVie / Abbott, published 2015).
